Laboratory results: publication doi:10.1101/2022.01.11.475809
These are yes or no findings as the source states them, for the method shown. Binding seen in cells or lysates may run through a third protein. Some results given as binding are weak or reduced against the parent protein; the word gives no strength.

Sequences of proteins named here, by UniProt entry; tags and fusion partners are left off. A change or cut given only in a name is not applied to a line headed by its entry. Residues count along the entry.
UniProt P83916, whole entry: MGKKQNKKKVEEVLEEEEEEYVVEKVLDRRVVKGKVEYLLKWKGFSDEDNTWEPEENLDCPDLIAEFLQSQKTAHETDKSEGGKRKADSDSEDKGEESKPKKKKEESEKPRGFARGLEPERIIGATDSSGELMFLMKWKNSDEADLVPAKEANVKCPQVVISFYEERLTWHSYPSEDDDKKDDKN
UniProt P83916, 1-116, stated change not applied: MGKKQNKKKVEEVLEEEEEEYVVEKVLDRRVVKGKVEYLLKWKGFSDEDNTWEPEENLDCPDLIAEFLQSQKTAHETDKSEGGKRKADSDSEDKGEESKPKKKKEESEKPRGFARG
UniProt Q06587, whole entry: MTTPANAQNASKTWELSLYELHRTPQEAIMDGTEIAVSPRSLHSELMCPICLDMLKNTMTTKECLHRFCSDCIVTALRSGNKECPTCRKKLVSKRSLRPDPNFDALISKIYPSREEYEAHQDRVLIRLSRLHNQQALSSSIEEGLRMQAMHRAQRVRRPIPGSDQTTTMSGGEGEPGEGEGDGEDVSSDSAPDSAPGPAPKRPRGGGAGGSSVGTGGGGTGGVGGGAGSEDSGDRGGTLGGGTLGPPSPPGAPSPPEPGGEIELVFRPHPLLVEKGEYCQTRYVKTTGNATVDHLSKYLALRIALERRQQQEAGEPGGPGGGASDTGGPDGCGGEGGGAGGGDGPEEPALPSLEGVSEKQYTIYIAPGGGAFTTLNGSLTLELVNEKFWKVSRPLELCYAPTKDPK
UniProt Q13263, whole entry: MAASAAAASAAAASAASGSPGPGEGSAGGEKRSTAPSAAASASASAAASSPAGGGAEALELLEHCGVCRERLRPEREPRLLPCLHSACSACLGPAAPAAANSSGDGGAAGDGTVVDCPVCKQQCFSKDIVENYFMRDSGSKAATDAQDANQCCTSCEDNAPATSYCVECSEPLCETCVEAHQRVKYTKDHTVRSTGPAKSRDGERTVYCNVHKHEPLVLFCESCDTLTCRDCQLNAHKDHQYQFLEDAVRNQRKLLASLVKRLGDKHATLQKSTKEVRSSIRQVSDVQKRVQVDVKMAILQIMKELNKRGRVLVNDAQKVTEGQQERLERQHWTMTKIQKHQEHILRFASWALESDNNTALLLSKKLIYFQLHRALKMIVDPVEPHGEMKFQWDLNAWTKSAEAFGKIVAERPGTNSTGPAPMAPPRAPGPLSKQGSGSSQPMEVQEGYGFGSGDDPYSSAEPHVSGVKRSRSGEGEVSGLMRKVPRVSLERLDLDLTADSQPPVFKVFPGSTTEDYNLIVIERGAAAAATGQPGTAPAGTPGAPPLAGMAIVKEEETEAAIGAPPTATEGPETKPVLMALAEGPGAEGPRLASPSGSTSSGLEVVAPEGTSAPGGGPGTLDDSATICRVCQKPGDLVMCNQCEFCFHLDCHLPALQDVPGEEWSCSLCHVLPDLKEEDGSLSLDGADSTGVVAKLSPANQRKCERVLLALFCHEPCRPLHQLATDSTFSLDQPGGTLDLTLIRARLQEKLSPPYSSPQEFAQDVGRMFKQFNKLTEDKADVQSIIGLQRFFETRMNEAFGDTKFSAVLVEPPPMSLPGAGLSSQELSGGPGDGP

Key:
Assay in all cases: co-IP
HA HP1β = HA HP1β (UniProt P83916)
[1] = target: Flag-CSD HP1β (Δ amino acids 22-79) (UniProt P83916)
[2] = target: Flag-CD HP1β (Δ amino acids 117-185) (UniProt P83916)
[3] = target: Flag HP1β (full length Heterochromatin Protein1 beta) (UniProt P83916)

Substance	binding (HA HP1β)	binding [1]	binding [2]	binding [3]
FLAG RING1A (from UniProt Q06587 1-406)	binds	binds	no binding	
endogenous RING1A (from UniProt Q06587 1-406)				binds
KAP1 (from UniProt Q13263 1-835)		binds		binds
